Values from PubChem BioAssay AID1671195 (Yale University, 2021).
Test: 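Knockdowns that increase or decrease uptake of fluorescent LDL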 (primary screen). System: human Huh7 hepatoma cells. Knock-down reagent: siRNA pool against human genes, 18 nM. Timing: about 2 to 2.5 days of knockdown, then 8 h LDL uptake. Conditions: DiI-labelled LDL at 30 µg/ml for 8 h, in lipoprotein-deficient serum medium. Measurement: 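Fluorescent LDL signal imaged in cells, scaled to the plate median, robust z-score for each replicate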. Reading the numbers: robust z-score: higher = more LDL uptake after knockdown. Hit rule: 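Active when two or more replicates show a robust z-score above 2 or below -2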.
The deposit covers about 22,000 reagents; this is an unselected part. About 1,510 of them (6.9%) count as active. 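Active includes knockdowns raising or lowering LDL uptake; positive z-scores mean more uptake, negative mean less.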 Entries without a mark were called inactive. The numbers tell different reagents against one gene apart. No sequences are given here.

gene | reagent no. | robust z-score, replicate 1 | robust z-score, replicate 2 | robust z-score, replicate 3
CLCN5 | 1 | 1.63 (active) | 2.66 | 2.12
LRRTM1 | 1 | 2.44 (active) | 2.94 | 2.74
RBBP7 | 1 | -0.426 | -0.497 | -0.843
NBPF21P | 1 | 0.0176 | -0.241 | 0.00753
TET1 | 1 | 1.02 | 0.704 | 1.28
ZNF174 | 1 | 2.53 (active) | 2.47 | 2.63
TBC1D22A | 1 | -0.0918 | 0.475 | 0.149
COL4A4 | 1 | 1.09 | -0.38 | 0.121
CCDC57 | 1 | -0.046 | -0.209 | 0.524
CCDC57 | 2 | -0.84 | -1.51 | -1.35
HHATL | 1 | 0.0361 | 0.7 | -0.0901
MESP2 | 1 | 0.683 | 0.602 | 0.478
NRM | 1 | -0.268 | 1.25 | -0.949
AFG3L2 | 1 | -1.36 | -0.648 | -0.902
LOC441542 (retired record) | 1 | 0.796 | 0.67 | 0.143
LOC442093 (retired record) | 1 | 1.61 | 1.66 | 2.06
SLC22A25 | 1 | -1.28 | -1.12 | -1.34
ZNF205 | 1 | 1.28 | 1.14 | 0.477
GNPTG | 1 | 1.8 | 1.44 | 2.18
APOD | 1 | -0.917 | -0.442 | -0.425
SCGB1D1 | 1 | -0.613 | -1.13 | 0.187
TEKTL1 | 1 | 0.877 | 1.87 | 1.43
OR6T1 | 1 | 0.988 | 0.816 | 0.909
DLGAP3 | 1 | 0.85 | 0.291 | 0.27
TTC7A | 1 | 0.316 | 0.514 | 0.52
TAS1R2 | 1 | -0.103 | -0.285 | 0.0626
DSCR10 | 1 | -0.327 | 0.0995 | 0.31
TEX30 | 1 | -1.51 | -1.29 | -1.56

Part of the list above in another layout.
| gene | reagent no. | robust z-score, replicate 1 | robust z-score, replicate 2 | robust z-score, replicate 3 |
| --- | --- | --- | --- | --- |
| AFG3L2 | 1 | -1.36 | -0.648 | -0.902 |
| LOC441542 (retired record) | 1 | 0.796 | 0.67 | 0.143 |
| LOC442093 (retired record) | 1 | 1.61 | 1.66 | 2.06 |
